Test results as given in patent US9215875B2 (priority 2008, dated 2015).
Some of these results come from one statement about several compounds together.

Assays:
Plasmopara viticola = assay: Plasmopara test (grapevine)/protective; assay type: in vivo; details: active compound concentration 100 ppm; protective, young grapevine plants; evaluation 6 days after inoculation; 100% = no infection
Phytophthora infestans = assay type: in vivo; details: active compound concentration 500 ppm; protective, young tomato plants; evaluation 7 days after inoculation; 100% = no infection

Compound | efficacy (Plasmopara viticola) | efficacy (Phytophthora infestans)
CC(=NOc1ccccc1)c1csc(C2CCN(C(=O)Cn3nc(C(F)(F)F)cc3C)CC2)n1 (mixture of isomers) [I-4] | ≥ 70% | ≥ 70%
CC(=NOCCCCc1ccccc1)c1csc(C2CCN(C(=O)Cn3nc(C(F)(F)F)cc3C)CC2)n1 [I-22] | ≥ 70% | ≥ 70%
Cc1cc(C(F)(F)F)nn1CC(=O)N1CCC(c2nc(C=NN(C)c3ccc(C(F)(F)F)cn3)cs2)CC1 [I-14, 2-(1-{[5-Methyl-3-(trifluoromethyl)-1H-pyrazol-1-yl]acetyl}piperidin-4-yl)-1,3-thiazole-4-carbaldehyde methyl[5-(trifluoromethyl)pyridin-2-yl]hydrazone] | – | ≥ 70%
Cc1cc(C(F)(F)F)nn1CC(=O)N1CCC(c2nc(C=NOCc3ccccc3)cs2)CC1 (mixture of isomers) [I-2] | ≥ 70% | ≥ 70%
Cc1cc(C(F)(F)F)nn1CC(=O)N1CCC(c2nc(C=NOCc3ccc(Cl)cc3)cs2)CC1 (mixture of isomers) [I-7] | ≥ 70% | ≥ 70%
Cc1cc(C(F)(F)F)nn1CC(=O)N1CCC(c2nc(C=NOCc3ccccc3Cl)cs2)CC1 [I-18] | ≥ 70% | ≥ 70%
CCc1cc(CC)n(CC(=O)N2CCC(c3nc(C=NOCc4ccc(Cl)cc4)cs3)CC2)n1 [I-25] | ≥ 70% | ≥ 70%
Cc1cc(C(F)(F)F)nn1CC(=O)N1CCC(c2nc(C=NN(c3ccccc3)c3ccccc3)cs2)CC1 [I-13] | – | ≥ 70%
CC(C)c1cc(C(F)(F)F)n(CC(=O)N2CCC(c3nc(C=NOCc4ccc(Cl)cc4)cs3)CC2)n1 [I-32] | ≥ 70% | ≥ 70%
Cc1cc(C(F)(F)F)nn1CC(=O)N1CCC(c2nc(C=NOCc3ccccc3F)cs2)CC1 (mixture of isomers) [I-9] | ≥ 70% | ≥ 70%
CCCCCON=C(C)c1csc(C2CCN(C(=O)Cn3nc(C(F)(F)F)cc3C)CC2)n1 [I-20] | – | ≥ 70%
Cc1cc(C(F)(F)F)nn1CC(=O)N1CCC(c2nc(C=NN(Cc3ccccc3)c3ccccc3)cs2)CC1 [I-12] | – | ≥ 70%
Cc1cc(C(F)(F)F)nn1CC(=O)N1CCC(c2nc(C=NN3CCCCC3)cs2)CC1 [I-16] | – | ≥ 70%
CCc1cc(C(F)(F)F)nn1CC(=O)N1CCC(c2nc(C=NOCc3ccc(Cl)cc3)cs2)CC1 [I-26] | ≥ 70% | ≥ 70%
Cc1cc(C(F)(F)F)nn1CC(=O)N1CCC(c2nc(C=NOc3ccccc3)cs2)CC1 [I-1, 2-(1-{[5-Methyl-3-(trifluoromethyl)-1H-pyrazol-1-yl]acetyl}piperidin-4-yl)-1,3-thiazole-4-carbaldehyde O-phenyl oxime] | ≥ 70% | ≥ 70%
O=C(Cn1nc(C(F)F)cc1C(F)F)N1CCC(c2nc(C=NOCc3ccc(Cl)cc3)cs2)CC1 [I-27] | ≥ 70% | ≥ 70%
CCCCCCON=C(C)c1csc(C2CCN(C(=O)Cn3nc(C(F)(F)F)cc3C)CC2)n1 [I-19] | ≥ 70% | ≥ 70%
O=C(Cn1nc(C(F)(F)F)cc1C(F)(F)F)N1CCC(c2nc(C=NOCc3ccc(Cl)cc3)cs2)CC1 [I-24] | ≥ 70% | ≥ 70%
CC(=NOC(C)c1ccccc1)c1csc(C2CCN(C(=O)Cn3nc(C(F)(F)F)cc3C)CC2)n1 (stereo not shown) [I-5, 2-[5-Methyl-3-(trifluoromethyl)-1H-pyrazol-1-yl]-1-(4-{4-[N-(1-phenylethoxy)ethanimidoyl]-1,3-thiazol-2-yl}piperidin-1-yl)ethanone] | ≥ 70% | ≥ 70%
Cc1ccccc1CON=Cc1csc(C2CCN(C(=O)Cn3nc(C(F)(F)F)cc3C)CC2)n1 (mixture of isomers) [I-6] | ≥ 70% | ≥ 70%
Cc1cc(C(F)(F)F)nn1CC(=O)N1CCC(c2nc(C=NN(C)c3ccccc3)cs2)CC1 [I-15] | – | ≥ 70%
CC(=NOCCCc1ccccc1)c1csc(C2CCN(C(=O)Cn3nc(C(F)(F)F)cc3C)CC2)n1 [I-21] | – | ≥ 70%
